Assay results reported in publication PMC2970546.
Results are given in words; binding and its absence hold for the method and conditions named. Binding calls can cover weak binding; strength is not graded here.

Columns and labels:
human septin 6 (human) = molecular target: T1, human septin 6 (human) (UniProt Q14141); test: two-hybrid; LexA-septin bait (modified pBTM116) in yeast L40 screened against human fetal brain and human leukocyte cDNA libraries (pACT2); minimal medium without Trp, Leu, His, with 5 mM 3-AT; every clone confirmed one-to-one with its bait by beta-galactosidase filter assay, empty bait vector as control
T1 sequence: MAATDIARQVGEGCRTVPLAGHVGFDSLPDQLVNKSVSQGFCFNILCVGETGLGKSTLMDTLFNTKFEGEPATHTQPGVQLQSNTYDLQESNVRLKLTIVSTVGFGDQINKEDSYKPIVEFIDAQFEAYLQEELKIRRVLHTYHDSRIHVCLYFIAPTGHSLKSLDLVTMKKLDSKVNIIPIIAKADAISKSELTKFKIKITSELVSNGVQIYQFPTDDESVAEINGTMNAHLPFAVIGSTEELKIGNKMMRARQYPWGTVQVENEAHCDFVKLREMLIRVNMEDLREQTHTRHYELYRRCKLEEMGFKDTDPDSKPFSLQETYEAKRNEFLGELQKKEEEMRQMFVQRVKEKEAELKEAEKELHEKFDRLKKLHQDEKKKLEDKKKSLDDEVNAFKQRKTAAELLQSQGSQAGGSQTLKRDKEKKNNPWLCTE

human septin 2 (human) = molecular target: T2, human septin 2 (human) (UniProt Q15019); test: as above
T2 sequence: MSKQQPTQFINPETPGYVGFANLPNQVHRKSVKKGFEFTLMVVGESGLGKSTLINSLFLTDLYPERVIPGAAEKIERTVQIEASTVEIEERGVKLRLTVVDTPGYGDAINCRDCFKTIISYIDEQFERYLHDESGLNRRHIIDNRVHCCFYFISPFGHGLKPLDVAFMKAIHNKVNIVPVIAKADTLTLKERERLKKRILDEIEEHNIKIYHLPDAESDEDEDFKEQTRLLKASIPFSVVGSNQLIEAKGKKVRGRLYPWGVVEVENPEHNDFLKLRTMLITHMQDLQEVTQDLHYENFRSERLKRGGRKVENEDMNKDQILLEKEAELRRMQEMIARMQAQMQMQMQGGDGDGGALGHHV

| Substance | binding (human septin 6 (human)) | binding (human septin 2 (human)) |
| --- | --- | --- |
| SEPT4(101-478) (from UniProt O43236-1) (domain or fragment) | binds |  |
| PC-S/K-I (human) |  | binds |
